Experimental data from the supplement of paper PMC12819154, “High-throughput peptide-centric local stability assay extends protein–ligand identification to membrane proteins, tissues and bacteria” (Nature Structural & Molecular Biology, 2025).
The other results are listed elsewhere or left out. Most values lie at the level of the controls, where differences are scatter.

Protein sequences, listed by entry. Tags and fused reporters are not part of them. Lines headed by an entry give the natural chain unless they say otherwise; changes in a name come on top.
UniProt Q9HCC0: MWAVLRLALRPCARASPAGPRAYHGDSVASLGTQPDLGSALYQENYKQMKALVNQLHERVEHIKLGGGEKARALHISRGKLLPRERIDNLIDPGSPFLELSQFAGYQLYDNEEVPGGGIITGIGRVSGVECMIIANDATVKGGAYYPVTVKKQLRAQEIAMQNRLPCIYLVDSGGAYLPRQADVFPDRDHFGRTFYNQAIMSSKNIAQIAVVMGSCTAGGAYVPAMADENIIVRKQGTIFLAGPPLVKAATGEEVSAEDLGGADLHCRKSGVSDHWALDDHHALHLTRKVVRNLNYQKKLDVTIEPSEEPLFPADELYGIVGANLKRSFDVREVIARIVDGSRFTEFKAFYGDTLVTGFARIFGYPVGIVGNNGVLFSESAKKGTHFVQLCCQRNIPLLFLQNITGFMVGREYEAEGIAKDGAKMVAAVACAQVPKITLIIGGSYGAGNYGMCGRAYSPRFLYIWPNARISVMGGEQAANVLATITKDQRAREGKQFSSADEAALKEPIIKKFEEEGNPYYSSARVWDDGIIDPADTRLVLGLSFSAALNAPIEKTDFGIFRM
UniProt Q9H9A6: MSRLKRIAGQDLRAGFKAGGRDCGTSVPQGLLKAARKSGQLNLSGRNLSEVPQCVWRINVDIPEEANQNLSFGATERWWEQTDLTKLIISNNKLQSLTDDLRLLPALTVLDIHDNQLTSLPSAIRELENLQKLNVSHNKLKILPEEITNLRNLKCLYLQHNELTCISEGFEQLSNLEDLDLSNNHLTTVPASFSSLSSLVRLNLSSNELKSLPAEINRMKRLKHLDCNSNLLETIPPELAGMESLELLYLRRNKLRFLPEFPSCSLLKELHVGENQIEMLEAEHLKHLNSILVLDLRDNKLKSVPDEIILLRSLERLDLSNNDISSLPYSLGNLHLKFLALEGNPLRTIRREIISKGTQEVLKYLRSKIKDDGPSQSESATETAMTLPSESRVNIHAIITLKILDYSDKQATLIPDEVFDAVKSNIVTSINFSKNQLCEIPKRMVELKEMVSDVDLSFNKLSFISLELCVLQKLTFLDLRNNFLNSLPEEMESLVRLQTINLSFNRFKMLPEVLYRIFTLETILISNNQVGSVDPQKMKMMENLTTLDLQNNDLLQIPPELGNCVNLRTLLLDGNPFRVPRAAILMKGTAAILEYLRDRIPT
UniProt Q9H9Z2: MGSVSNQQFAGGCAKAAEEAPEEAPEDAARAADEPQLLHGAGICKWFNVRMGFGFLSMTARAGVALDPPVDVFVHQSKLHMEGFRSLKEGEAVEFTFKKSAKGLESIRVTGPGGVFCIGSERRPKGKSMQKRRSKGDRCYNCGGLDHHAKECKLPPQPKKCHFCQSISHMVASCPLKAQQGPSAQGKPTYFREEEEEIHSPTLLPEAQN
UniProt Q9HAP2: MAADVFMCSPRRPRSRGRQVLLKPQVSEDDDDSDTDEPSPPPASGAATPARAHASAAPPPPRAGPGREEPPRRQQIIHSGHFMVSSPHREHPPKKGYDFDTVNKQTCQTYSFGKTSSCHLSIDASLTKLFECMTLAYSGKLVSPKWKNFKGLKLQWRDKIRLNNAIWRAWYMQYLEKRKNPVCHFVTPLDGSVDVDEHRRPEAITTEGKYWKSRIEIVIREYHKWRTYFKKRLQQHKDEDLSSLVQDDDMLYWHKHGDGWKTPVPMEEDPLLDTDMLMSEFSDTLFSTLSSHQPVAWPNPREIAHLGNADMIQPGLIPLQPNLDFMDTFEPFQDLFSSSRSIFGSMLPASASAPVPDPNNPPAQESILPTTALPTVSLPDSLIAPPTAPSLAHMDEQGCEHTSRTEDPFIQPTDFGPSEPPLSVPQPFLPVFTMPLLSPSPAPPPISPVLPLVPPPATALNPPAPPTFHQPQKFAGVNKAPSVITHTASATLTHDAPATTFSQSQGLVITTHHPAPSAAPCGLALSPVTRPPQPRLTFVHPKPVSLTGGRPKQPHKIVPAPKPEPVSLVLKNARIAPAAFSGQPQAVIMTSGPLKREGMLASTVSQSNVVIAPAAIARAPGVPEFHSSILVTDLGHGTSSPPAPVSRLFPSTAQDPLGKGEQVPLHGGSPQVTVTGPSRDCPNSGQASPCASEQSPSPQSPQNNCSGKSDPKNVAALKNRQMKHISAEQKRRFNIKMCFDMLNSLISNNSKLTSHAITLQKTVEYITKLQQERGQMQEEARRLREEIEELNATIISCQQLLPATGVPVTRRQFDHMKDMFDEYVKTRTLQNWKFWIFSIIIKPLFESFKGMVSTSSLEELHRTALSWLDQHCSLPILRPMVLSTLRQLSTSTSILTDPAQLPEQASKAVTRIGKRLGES
UniProt Q9H4L5: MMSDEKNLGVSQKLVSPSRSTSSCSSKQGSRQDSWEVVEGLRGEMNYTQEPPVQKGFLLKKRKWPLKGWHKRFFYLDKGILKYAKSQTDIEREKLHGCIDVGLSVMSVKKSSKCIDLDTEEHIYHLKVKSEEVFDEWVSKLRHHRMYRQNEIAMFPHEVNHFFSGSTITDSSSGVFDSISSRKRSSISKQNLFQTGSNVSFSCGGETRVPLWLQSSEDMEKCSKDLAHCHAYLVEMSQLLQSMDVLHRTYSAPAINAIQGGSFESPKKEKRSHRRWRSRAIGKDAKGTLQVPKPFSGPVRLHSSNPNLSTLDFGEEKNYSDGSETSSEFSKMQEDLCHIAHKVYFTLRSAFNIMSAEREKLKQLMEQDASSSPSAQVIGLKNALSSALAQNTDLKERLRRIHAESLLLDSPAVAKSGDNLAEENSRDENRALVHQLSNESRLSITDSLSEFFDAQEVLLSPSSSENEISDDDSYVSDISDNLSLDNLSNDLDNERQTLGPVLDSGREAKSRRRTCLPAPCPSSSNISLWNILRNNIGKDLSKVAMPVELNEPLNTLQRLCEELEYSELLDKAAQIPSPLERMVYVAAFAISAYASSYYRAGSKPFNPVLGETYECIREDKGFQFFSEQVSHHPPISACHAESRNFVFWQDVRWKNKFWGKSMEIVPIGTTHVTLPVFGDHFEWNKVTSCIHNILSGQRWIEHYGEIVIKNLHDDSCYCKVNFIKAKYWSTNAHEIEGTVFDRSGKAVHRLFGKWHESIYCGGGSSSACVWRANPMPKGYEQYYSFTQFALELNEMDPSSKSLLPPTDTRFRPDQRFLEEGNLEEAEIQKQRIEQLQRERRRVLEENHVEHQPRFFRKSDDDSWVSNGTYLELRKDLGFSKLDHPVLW
UniProt Q9H2X6: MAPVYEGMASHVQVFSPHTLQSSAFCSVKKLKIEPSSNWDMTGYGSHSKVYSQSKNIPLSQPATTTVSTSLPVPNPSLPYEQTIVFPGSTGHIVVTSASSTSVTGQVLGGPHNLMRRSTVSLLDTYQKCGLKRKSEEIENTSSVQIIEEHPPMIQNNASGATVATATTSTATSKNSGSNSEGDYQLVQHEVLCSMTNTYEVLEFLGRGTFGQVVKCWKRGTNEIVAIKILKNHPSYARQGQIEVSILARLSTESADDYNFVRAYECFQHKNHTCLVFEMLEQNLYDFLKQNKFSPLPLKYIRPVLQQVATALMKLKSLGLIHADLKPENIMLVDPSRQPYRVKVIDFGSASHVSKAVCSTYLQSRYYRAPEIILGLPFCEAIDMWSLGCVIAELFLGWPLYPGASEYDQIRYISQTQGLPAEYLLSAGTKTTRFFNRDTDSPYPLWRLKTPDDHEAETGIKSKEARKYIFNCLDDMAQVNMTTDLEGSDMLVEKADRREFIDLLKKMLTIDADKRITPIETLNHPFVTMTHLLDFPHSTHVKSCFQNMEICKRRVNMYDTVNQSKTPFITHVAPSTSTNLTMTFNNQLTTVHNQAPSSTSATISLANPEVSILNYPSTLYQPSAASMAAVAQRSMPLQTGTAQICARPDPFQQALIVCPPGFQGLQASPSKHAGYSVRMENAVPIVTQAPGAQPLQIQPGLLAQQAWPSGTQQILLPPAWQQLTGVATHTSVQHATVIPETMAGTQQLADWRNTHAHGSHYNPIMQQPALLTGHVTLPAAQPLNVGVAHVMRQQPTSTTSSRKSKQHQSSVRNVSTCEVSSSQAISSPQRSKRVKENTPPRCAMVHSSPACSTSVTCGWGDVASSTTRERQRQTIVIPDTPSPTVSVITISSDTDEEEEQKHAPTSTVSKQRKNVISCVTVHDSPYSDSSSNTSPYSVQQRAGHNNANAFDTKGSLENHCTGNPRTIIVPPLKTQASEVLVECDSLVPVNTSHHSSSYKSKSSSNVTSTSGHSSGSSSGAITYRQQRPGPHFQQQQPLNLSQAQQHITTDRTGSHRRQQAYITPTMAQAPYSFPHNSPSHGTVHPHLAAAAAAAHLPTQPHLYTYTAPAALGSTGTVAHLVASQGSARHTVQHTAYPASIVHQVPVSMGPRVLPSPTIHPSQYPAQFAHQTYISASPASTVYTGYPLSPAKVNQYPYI
UniProt Q9H6S1, whole entry: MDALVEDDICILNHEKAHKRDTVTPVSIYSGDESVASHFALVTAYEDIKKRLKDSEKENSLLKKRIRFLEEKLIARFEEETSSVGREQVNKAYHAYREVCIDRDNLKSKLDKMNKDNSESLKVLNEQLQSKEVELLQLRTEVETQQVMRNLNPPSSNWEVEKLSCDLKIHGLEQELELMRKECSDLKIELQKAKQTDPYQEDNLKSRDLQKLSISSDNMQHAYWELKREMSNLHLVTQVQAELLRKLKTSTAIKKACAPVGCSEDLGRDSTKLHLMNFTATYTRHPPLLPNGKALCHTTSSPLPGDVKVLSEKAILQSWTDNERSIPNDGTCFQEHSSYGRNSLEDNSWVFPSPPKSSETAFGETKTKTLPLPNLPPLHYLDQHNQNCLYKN
UniProt Q9H5Q4: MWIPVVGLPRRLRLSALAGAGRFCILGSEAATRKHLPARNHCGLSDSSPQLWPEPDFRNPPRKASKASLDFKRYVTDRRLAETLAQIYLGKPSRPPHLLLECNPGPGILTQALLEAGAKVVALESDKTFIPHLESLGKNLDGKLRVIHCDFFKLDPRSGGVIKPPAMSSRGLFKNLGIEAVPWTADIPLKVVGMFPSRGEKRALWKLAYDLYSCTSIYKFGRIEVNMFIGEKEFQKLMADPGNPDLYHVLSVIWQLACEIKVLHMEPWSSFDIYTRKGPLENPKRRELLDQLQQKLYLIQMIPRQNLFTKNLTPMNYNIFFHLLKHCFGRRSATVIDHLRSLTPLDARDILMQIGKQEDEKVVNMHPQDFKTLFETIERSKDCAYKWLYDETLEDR
UniProt Q9HCG7: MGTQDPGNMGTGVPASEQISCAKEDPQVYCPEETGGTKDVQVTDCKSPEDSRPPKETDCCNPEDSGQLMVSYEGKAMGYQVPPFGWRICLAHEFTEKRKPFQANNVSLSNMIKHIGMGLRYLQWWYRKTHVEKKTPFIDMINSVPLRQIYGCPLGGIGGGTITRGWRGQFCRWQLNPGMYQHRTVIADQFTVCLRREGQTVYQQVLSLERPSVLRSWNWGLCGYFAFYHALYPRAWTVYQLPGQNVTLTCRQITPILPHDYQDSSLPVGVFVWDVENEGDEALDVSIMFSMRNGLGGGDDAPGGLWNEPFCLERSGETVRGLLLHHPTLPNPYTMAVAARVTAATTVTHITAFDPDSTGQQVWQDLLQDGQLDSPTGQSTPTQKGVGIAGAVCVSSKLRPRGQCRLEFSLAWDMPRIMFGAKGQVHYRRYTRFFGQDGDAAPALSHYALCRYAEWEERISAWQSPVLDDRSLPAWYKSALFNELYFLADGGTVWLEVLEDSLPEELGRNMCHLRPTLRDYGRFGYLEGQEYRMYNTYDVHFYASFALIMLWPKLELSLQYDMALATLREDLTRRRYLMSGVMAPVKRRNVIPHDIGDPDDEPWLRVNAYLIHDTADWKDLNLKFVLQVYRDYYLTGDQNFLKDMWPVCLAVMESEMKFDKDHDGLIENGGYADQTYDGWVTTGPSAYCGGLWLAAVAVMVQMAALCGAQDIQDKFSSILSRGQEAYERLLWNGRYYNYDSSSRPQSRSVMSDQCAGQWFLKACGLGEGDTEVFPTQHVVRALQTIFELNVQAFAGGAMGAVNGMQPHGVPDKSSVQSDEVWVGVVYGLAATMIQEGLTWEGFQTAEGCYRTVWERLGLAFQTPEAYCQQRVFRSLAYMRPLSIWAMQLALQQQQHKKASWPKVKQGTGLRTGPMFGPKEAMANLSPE

The targets below were run with Cc1nc(Nc2ncc(C(=O)Nc3c(C)cccc3Cl)s2)cc(N2CCN(CCO)CC2)n1 [dasatinib] (assay: log2 fold change of tryptic peptide abundance, ligand vs vehicle (limited proteolysis) (log2 ratio); higher = more trypsin-susceptible (destabilized)). Conditions: ligand concentration: 5 uM; sample: K562 cleared lysate.

Target	log2 fold change
MCCC2 (peptide sequence: GTHFVQLCCQR, peptide start residue: 384) (UniProt Q9HCC0)	0.163
LRRC40 (peptide sequence: LTFLDLR, peptide start residue: 474) (UniProt Q9H9A6)	-0.389
LIN28A (peptide sequence: CYNCGGLDHHAK, peptide start residue: 129) (UniProt Q9H9Z2)	0.24
MLXIP (peptide sequence: AHASAAPPPPR, peptide start residue: 52) (UniProt Q9HAP2)	-0.273
OSBPL3 (peptide sequence: NFVFWQDVR, peptide start residue: 644) (UniProt Q9H4L5)	-0.274
HIPK2 (peptide sequence: TIIVPPLK, peptide start residue: 984) (UniProt Q9H2X6)	0.109
AZI2 (peptide sequence: ECSDLKIELQK, peptide start residue: 182) (UniProt Q9H6S1)	-0.502
TFB2M (peptide sequence: SKDCAYK, peptide start residue: 380) (UniProt Q9H5Q4)	-0.368
GBA2 (peptide sequence: YYNYDSSSRPQSR, peptide start residue: 735) (UniProt Q9HCG7)	-0.00762
